Laboratory results taken from the supplement of paper PMC12823440, “Inhibitors supercharge kinase turnover through native proteolytic circuits” (Nature, 2025).
Structures can show the parent of a compound that is named as a salt. The list shows a part of the results. Hit calls seldom repeat between salt and free forms of one compound.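 In K562 cells expressing nanoluciferase-fused kinases, luminescence was recorded at 4 h intervals between 2 and 18 h, normalized as percent of control with DMSO at 100% and a positive control at 0%. A significant (2 sigma) signal drop marks a time point as decreased. The authors' rule for a hit is not shown and takes in more than the number of time points.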

Chains of the proteins cited; added tags and fusions are not shown. Lines headed by an entry give the natural chain unless they say otherwise; changes in a name come on top.
UniProt P31749: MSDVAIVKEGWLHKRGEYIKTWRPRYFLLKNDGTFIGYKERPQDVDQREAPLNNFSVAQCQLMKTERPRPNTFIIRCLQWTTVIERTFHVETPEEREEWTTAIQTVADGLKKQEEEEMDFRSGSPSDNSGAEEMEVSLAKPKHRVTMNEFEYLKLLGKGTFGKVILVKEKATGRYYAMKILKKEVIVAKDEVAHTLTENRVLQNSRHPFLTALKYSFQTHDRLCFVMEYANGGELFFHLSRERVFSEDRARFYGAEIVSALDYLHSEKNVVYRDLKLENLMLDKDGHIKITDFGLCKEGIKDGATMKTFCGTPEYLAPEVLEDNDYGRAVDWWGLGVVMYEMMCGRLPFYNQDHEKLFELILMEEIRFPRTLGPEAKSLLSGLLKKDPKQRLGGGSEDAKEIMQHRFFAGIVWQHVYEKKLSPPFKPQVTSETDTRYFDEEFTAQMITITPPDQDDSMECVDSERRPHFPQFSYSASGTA
UniProt P10398: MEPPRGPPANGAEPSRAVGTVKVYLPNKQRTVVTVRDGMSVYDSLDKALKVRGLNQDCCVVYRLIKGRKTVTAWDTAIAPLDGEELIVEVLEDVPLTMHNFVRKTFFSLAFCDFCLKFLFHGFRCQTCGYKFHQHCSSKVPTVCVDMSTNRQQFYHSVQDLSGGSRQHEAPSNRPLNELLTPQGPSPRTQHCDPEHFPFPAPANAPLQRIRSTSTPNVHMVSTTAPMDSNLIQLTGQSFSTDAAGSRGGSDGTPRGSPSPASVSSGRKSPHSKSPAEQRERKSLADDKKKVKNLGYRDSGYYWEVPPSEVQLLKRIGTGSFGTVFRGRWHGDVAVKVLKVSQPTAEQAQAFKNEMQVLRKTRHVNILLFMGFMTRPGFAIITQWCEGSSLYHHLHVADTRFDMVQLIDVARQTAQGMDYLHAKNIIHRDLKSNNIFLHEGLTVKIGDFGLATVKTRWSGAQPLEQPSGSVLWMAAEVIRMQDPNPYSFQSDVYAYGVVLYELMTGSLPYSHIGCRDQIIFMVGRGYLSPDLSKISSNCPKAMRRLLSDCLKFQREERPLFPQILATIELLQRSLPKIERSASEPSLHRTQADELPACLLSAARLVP
UniProt O14965: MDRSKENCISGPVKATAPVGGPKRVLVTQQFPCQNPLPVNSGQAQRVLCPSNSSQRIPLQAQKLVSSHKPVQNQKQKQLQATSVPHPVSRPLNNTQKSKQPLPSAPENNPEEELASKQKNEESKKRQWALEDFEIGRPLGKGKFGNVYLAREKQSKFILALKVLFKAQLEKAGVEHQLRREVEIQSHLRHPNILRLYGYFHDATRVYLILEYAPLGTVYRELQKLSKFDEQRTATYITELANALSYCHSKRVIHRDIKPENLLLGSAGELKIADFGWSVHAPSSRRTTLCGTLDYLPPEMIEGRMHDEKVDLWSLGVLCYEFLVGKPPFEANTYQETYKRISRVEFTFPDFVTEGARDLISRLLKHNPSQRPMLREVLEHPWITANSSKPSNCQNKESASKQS
UniProt Q96GD4, whole entry: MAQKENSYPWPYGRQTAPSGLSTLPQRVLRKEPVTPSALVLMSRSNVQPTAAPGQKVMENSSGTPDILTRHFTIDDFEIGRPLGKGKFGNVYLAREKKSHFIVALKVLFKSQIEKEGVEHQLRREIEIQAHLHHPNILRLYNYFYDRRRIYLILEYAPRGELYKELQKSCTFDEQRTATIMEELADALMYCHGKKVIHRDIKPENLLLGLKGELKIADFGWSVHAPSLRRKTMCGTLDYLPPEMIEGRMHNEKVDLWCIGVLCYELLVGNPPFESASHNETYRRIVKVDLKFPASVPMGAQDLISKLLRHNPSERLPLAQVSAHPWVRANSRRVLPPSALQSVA
UniProt Q9UQB9: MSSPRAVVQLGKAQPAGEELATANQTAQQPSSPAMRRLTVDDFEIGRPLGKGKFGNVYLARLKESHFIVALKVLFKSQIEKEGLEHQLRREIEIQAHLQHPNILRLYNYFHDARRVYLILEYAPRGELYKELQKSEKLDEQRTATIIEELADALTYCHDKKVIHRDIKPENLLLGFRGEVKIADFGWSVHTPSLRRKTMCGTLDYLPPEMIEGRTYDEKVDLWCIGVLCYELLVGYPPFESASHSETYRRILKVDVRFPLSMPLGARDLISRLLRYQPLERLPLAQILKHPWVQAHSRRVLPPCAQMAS
UniProt P51451: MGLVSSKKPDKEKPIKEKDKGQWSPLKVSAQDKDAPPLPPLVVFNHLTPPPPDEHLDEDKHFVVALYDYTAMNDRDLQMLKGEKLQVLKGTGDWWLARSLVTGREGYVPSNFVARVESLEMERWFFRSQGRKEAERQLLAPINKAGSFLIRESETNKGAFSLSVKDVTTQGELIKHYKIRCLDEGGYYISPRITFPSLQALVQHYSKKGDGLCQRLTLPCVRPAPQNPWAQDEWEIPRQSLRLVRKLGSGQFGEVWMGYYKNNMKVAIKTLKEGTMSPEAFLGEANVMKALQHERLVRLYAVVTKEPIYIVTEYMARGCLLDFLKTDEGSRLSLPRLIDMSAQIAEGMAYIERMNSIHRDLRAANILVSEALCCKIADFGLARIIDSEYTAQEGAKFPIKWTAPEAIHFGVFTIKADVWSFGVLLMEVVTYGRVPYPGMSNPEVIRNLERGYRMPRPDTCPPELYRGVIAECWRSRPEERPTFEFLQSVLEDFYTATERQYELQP
UniProt P51813: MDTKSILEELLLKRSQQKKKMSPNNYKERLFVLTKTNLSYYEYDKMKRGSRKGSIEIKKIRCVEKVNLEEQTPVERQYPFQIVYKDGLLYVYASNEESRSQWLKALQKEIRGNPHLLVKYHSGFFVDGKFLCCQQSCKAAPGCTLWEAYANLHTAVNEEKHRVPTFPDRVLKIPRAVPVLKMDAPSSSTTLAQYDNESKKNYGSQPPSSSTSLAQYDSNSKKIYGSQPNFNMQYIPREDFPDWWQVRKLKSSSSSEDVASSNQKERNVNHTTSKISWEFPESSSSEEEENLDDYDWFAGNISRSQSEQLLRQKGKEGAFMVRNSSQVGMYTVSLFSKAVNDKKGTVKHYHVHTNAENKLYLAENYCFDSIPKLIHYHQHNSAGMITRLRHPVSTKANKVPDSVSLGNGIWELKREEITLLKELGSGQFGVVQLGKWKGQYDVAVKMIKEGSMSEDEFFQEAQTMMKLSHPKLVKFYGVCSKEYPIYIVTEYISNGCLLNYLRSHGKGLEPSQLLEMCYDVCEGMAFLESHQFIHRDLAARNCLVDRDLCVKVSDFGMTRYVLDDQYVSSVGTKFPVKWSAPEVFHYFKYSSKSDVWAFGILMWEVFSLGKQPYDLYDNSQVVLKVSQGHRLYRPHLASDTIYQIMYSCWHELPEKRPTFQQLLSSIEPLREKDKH
UniProt Q06187: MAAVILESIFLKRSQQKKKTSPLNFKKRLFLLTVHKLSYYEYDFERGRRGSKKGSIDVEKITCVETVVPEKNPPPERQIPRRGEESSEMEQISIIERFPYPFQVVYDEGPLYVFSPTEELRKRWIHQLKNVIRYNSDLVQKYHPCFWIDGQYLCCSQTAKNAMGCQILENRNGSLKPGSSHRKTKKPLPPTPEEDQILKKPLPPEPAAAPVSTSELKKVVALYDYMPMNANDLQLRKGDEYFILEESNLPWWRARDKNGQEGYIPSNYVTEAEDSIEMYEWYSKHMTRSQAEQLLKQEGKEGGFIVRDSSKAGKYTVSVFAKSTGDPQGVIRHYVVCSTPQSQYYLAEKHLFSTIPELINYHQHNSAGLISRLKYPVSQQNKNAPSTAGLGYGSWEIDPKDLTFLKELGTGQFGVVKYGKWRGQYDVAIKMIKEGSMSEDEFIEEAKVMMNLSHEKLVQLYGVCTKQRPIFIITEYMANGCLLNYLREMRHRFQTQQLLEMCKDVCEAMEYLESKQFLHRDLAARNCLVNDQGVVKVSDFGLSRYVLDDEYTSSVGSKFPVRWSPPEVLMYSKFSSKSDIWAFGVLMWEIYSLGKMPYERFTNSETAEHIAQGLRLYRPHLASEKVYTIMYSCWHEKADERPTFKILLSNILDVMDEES
UniProt Q13555: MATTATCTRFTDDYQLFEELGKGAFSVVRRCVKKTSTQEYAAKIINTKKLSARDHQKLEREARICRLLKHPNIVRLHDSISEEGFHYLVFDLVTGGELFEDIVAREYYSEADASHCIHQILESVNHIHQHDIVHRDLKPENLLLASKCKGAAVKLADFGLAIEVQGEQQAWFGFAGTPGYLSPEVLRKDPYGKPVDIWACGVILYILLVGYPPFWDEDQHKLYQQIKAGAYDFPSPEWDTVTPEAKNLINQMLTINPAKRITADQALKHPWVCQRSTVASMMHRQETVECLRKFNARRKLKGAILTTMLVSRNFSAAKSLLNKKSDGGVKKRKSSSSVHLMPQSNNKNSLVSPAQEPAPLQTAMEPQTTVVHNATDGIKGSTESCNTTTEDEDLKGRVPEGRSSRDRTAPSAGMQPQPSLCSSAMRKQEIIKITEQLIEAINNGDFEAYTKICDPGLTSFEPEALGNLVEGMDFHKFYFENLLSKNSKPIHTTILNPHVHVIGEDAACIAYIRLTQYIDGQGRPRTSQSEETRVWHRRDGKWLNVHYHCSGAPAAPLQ
UniProt Q15131: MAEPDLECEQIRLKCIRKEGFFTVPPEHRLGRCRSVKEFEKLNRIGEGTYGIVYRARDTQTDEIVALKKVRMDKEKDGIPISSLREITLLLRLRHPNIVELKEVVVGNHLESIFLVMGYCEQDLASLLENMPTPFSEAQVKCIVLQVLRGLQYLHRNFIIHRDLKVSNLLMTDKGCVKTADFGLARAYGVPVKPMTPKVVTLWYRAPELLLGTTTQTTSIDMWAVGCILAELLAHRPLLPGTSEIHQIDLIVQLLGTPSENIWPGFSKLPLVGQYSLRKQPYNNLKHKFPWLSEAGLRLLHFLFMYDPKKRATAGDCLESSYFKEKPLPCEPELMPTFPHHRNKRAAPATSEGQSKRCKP
UniProt Q00526: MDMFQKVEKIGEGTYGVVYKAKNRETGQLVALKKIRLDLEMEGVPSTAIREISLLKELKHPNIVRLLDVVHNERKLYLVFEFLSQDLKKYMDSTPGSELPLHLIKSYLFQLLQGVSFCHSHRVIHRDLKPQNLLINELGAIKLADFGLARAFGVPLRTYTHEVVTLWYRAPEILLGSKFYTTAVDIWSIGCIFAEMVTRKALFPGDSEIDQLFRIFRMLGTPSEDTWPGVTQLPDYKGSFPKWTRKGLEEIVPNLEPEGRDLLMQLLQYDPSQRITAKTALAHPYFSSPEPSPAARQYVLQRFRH
UniProt P11802: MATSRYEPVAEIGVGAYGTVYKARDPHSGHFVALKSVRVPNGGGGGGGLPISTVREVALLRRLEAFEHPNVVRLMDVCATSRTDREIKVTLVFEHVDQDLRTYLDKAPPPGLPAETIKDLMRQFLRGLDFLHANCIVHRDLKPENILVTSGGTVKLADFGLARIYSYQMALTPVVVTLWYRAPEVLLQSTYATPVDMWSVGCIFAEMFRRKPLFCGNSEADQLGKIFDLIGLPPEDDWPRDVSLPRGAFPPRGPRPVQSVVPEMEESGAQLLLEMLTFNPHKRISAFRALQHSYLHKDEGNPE
UniProt Q00535, whole entry, looked up: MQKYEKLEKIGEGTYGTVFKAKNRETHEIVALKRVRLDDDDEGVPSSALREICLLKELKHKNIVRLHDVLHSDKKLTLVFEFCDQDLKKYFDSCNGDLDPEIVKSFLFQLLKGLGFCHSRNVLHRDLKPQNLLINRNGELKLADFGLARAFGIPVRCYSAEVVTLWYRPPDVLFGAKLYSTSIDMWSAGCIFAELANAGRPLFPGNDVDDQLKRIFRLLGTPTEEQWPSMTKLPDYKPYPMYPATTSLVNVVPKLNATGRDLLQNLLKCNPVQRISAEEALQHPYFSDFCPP
UniProt Q00534, whole entry: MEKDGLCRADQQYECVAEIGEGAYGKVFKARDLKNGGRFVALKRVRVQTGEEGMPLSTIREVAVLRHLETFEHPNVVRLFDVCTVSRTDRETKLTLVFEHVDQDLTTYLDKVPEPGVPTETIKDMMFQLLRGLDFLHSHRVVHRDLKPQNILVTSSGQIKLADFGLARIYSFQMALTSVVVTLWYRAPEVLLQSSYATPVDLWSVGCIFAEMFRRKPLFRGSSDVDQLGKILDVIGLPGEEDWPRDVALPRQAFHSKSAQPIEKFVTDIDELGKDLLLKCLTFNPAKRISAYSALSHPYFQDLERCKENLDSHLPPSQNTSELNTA

Key:
Assay in all cases: kinase-Nluc reporter destabilization hit call (1 = scored as downregulated) (binary); higher = compound decreases kinase abundance
Settings in all cases: K562; 2-18 h
ABL1 = ABL1 (UniProt P00519)
AKT1 = AKT1 (UniProt P31749)
ALK = ALK (UniProt Q9UM73)
ARAF = ARAF (UniProt P10398)
AURKA = AURKA (UniProt O14965)
AURKB = AURKB (UniProt Q96GD4)
AURKC = AURKC (UniProt Q9UQB9)
BLK = BLK (UniProt P51451)
BMX = BMX (UniProt P51813)
BRAF = BRAF (UniProt P15056)
BRAF_V600E = test system: BRAF_V600E
BTK = BTK (UniProt Q06187)
CAMK2A = CAMK2A (UniProt Q9UQM7)
CAMK2G = CAMK2G (UniProt Q13555)
CDK10 = CDK10 (UniProt Q15131)
CDK2 = CDK2 (UniProt P24941)
CDK3 = CDK3 (UniProt Q00526)
CDK4 = CDK4 (UniProt P11802)
CDK5 = CDK5 (UniProt Q00535)
CDK6 = CDK6 (UniProt Q00534)

Measured: kinase-Nluc reporter destabilization hit call

Cc1cccc(Cn2nc(C)c3c(NC(=O)c4csc5c(N)ncnc45)cccc32)n1 (10 µM)
inactive: ABL1 = 0 | AKT1 = 0 | ALK 0 | ARAF 0 | AURKA 0 | AURKB 0 | AURKC 0 | BLK 0 | BMX 0 | BRAF 0 | BRAF_V600E 0 | BTK 0 | CAMK2A 0 | CAMK2G 0 | CDK10 = 0 | CDK2 = 0 | CDK3 = 0 | CDK4 = 0 | CDK5 = 0 | CDK6 = 0

COc1cc(-c2cc(-c3cccc(O)c3)cnc2N)cc(OC)c1OC (2.5 µM)
inactive: ABL1 = 0 | AKT1 = 0 | ALK 0 | ARAF 0 | AURKA 0 | AURKB 0 | AURKC 0 | BLK 0 | BMX 0 | BRAF 0 | BRAF_V600E 0 | BTK 0 | CAMK2A 0 | CAMK2G 0 | CDK10 = 0 | CDK2 = 0 | CDK3 = 0 | CDK4 = 0 | CDK5 = 0 | CDK6 = 0

CNS(=O)(=O)Nc1nccc(Cc2c(C)c3ccc(Oc4ncccn4)cc3oc2=O)c1F (10 µM)
inactive: ABL1 = 0 | AKT1 = 0 | ALK 0 | ARAF 0 | AURKA 0 | AURKB 0 | AURKC 0 | BLK 0 | BMX 0 | BRAF 0 | BRAF_V600E 0 | BTK 0 | CAMK2A 0 | CAMK2G 0 | CDK10 = 0 | CDK2 = 0 | CDK3 = 0 | CDK4 = 0 | CDK5 = 0 | CDK6 = 0

O=C(N/N=C/c1ccc([N+](=O)[O-])o1)c1ccc(O)cc1 [Nifuroxazide] (10 µM)
inactive: ABL1 = 0 | AKT1 = 0 | ALK 0 | ARAF 0 | AURKA 0 | AURKB 0 | AURKC 0 | BLK 0 | BMX 0 | BRAF 0 | BRAF_V600E 0 | BTK 0 | CAMK2A 0 | CAMK2G 0 | CDK10 = 0 | CDK2 = 0 | CDK3 = 0 | CDK4 = 0 | CDK5 = 0 | CDK6 = 0

CCN1C(C)(C)CC(Oc2ccc(C(=O)Nc3ccc(NC(=O)Nc4cc(C(C)(C)C)on4)cc3)nc2)CC1(C)C (10 µM)
inactive: ABL1 = 0 | AKT1 = 0 | ALK 0 | ARAF 0 | AURKA 0 | AURKB 0 | AURKC 0 | BLK 0 | BMX 0 | BRAF 0 | BRAF_V600E 0 | BTK 0 | CAMK2A 0 | CAMK2G 0 | CDK10 = 0 | CDK2 = 0 | CDK3 = 0 | CDK4 = 0 | CDK5 = 0 | CDK6 = 0

Cc1c(C(=O)Nc2ccc(Oc3ccnc4cc(OCC(C)(C)O)ccc34)c(F)c2)c(=O)n(-c2ccccc2)n1C [Ningetinib Tosylate] (10 µM)
inactive: ABL1 = 0 | AKT1 = 0 | ALK 0 | ARAF 0 | AURKA 0 | AURKB 0 | AURKC 0 | BLK 0 | BMX 0 | BRAF 0 | BRAF_V600E 0 | BTK 0 | CAMK2A 0 | CAMK2G 0 | CDK10 = 0 | CDK2 = 0 | CDK3 = 0 | CDK4 = 0 | CDK5 = 0 | CDK6 = 0

Sorted by length of the SMILES (smallest number first): some entries from above.
O=C(N/N=C/c1ccc([N+](=O)[O-])o1)c1ccc(O)cc1 [Nifuroxazide] (10 µM)
inactive: ABL1 = 0 | AKT1 = 0 | ALK 0 | ARAF 0 | AURKA 0 | AURKB 0 | AURKC 0 | BLK 0 | BMX 0 | BRAF 0 | BRAF_V600E 0 | BTK 0 | CAMK2A 0 | CAMK2G 0 | CDK10 = 0 | CDK2 = 0 | CDK3 = 0 | CDK4 = 0 | CDK5 = 0 | CDK6 = 0

Cc1c(C(=O)Nc2ccc(Oc3ccnc4cc(OCC(C)(C)O)ccc34)c(F)c2)c(=O)n(-c2ccccc2)n1C [Ningetinib Tosylate] (10 µM)
inactive: ABL1 = 0 | AKT1 = 0 | ALK 0 | ARAF 0 | AURKA 0 | AURKB 0 | AURKC 0 | BLK 0 | BMX 0 | BRAF 0 | BRAF_V600E 0 | BTK 0 | CAMK2A 0 | CAMK2G 0 | CDK10 = 0 | CDK2 = 0 | CDK3 = 0 | CDK4 = 0 | CDK5 = 0 | CDK6 = 0

CCN1C(C)(C)CC(Oc2ccc(C(=O)Nc3ccc(NC(=O)Nc4cc(C(C)(C)C)on4)cc3)nc2)CC1(C)C (10 µM)
inactive: ABL1 = 0 | AKT1 = 0 | ALK 0 | ARAF 0 | AURKA 0 | AURKB 0 | AURKC 0 | BLK 0 | BMX 0 | BRAF 0 | BRAF_V600E 0 | BTK 0 | CAMK2A 0 | CAMK2G 0 | CDK10 = 0 | CDK2 = 0 | CDK3 = 0 | CDK4 = 0 | CDK5 = 0 | CDK6 = 0

More structures:

CN1CCC(c2ccccc2CC(C)(C)Nc2nc(N3CCOCC3)nc(-n3c(S(C)(=O)=O)nc4ccccc43)n2)CC1 (10 µM)
inactive: ABL1 = 0 | AKT1 = 0 | ALK 0 | ARAF 0 | AURKA 0 | AURKB 0 | AURKC 0 | BLK 0 | BMX 0 | BRAF 0 | BRAF_V600E 0 | BTK 0 | CAMK2A 0 | CAMK2G 0 | CDK10 = 0 | CDK2 = 0 | CDK3 = 0 | CDK4 = 0 | CDK5 = 0 | CDK6 = 0

Cc1cc(/C=C2\CC/C(=C\c3cc(C)c(O)c(C)c3)C2=O)cc(C)c1O [Pentagamavunon-1] (2.5 µM)
inactive: ABL1 = 0 | AKT1 = 0 | ALK 0 | ARAF 0 | AURKA 0 | AURKB 0 | AURKC 0 | BLK 0 | BMX 0 | BRAF 0 | BRAF_V600E 0 | BTK 0 | CAMK2A 0 | CAMK2G 0 | CDK10 = 0 | CDK2 = 0 | CDK3 = 0 | CDK4 = 0 | CDK5 = 0 | CDK6 = 0

COC[C@H]1Cn2cc(-c3nc(Nc4ccnn4C)ncc3C)nc2C(=O)N1Cc1ccc(F)c(F)c1 (10 µM)
inactive: ABL1 = 0 | AKT1 = 0 | ALK 0 | ARAF 0 | AURKA 0 | AURKB 0 | AURKC 0 | BLK 0 | BMX 0 | BRAF 0 | BRAF_V600E 0 | BTK 0 | CAMK2A 0 | CAMK2G 0 | CDK10 = 0 | CDK2 = 0 | CDK3 = 0 | CDK4 = 0 | CDK5 = 0 | CDK6 = 0

C[C@@H]1CN(Cc2cn[nH]c2-c2ccc(C#N)cc2)CCN1c1ccc(C(F)(F)F)cn1 (2.5 µM)
inactive: ABL1 = 0 | AKT1 = 0 | ALK 0 | ARAF 0 | AURKA 0 | AURKB 0 | AURKC 0 | BLK 0 | BMX 0 | BRAF 0 | BRAF_V600E 0 | BTK 0 | CAMK2A 0 | CAMK2G 0 | CDK10 = 0 | CDK2 = 0 | CDK3 = 0 | CDK4 = 0 | CDK5 = 0 | CDK6 = 0

CS(=O)(=O)N1CCN(Cc2cn3cc(-c4cnc(N)nc4)nc(N4CCOCC4)c3n2)CC1 (10 µM)
inactive: ABL1 = 0 | AKT1 = 0 | ALK 0 | ARAF 0 | AURKA 0 | AURKB 0 | AURKC 0 | BLK 0 | BMX 0 | BRAF 0 | BRAF_V600E 0 | BTK 0 | CAMK2A 0 | CAMK2G 0 | CDK10 = 0 | CDK2 = 0 | CDK3 = 0 | CDK4 = 0 | CDK5 = 0 | CDK6 = 0

CC(C)(C)NS(=O)(=O)c1cncc(-c2cc(F)c3nc(N)nn3c2)c1 (10 µM)
inactive: ABL1 = 0 | AKT1 = 0 | ALK 0 | ARAF 0 | AURKA 0 | AURKB 0 | AURKC 0 | BLK 0 | BMX 0 | BRAF 0 | BRAF_V600E 0 | BTK 0 | CAMK2A 0 | CAMK2G 0 | CDK10 = 0 | CDK2 = 0 | CDK3 = 0 | CDK4 = 0 | CDK5 = 0 | CDK6 = 0

COc1ncc2cc(C(=O)Nc3cc(C(=O)NCc4cccc(Cl)c4)ccc3Cl)c(=O)[nH]c2n1 (2.5 µM)
inactive: ABL1 = 0 | AKT1 = 0 | ALK 0 | ARAF 0 | AURKA 0 | AURKB 0 | AURKC 0 | BLK 0 | BMX 0 | BRAF 0 | BRAF_V600E 0 | BTK 0 | CAMK2A 0 | CAMK2G 0 | CDK10 = 0 | CDK2 = 0 | CDK3 = 0 | CDK4 = 0 | CDK5 = 0 | CDK6 = 0

COc1ccc(S(=O)(=O)N(CCO)c2ccccc2CN(C)CC=Cc2ccc(Cl)cc2)cc1 (2.5 µM)
inactive: ABL1 = 0 | AKT1 = 0 | ALK 0 | ARAF 0 | AURKA 0 | AURKB 0 | AURKC 0 | BLK 0 | BMX 0 | BRAF 0 | BRAF_V600E 0 | BTK 0 | CAMK2A 0 | CAMK2G 0 | CDK10 = 0 | CDK2 = 0 | CDK3 = 0 | CDK4 = 0 | CDK5 = 0 | CDK6 = 0

CC(C)(C)S(=O)(=O)c1ccc2nccc(Nc3n[nH]c4ccc(F)cc34)c2c1 (10 µM)
inactive: ABL1 = 0 | AKT1 = 0 | ALK 0 | ARAF 0 | AURKA 0 | AURKB 0 | AURKC 0 | BLK 0 | BMX 0 | BRAF 0 | BRAF_V600E 0 | BTK 0 | CAMK2A 0 | CAMK2G 0 | CDK10 = 0 | CDK2 = 0 | CDK3 = 0 | CDK4 = 0 | CDK5 = 0 | CDK6 = 0

O=c1ccc2cc(O)c(O)cc2o1 [Esculetin] (10 µM)
inactive: ABL1 = 0 | AKT1 = 0 | ALK 0 | ARAF 0 | AURKA 0 | AURKB 0 | AURKC 0 | BLK 0 | BMX 0 | BRAF 0 | BRAF_V600E 0 | BTK 0 | CAMK2A 0 | CAMK2G 0 | CDK10 = 0 | CDK2 = 0 | CDK3 = 0 | CDK4 = 0 | CDK5 = 0 | CDK6 = 0

Cn1cc(-c2cn3nccc3c(-c3cnn([C@]4(CC#N)C[C@@H](C#N)C4)c3)n2)cn1 (10 µM)
inactive: ABL1 = 0 | AKT1 = 0 | ALK 0 | ARAF 0 | AURKA 0 | AURKB 0 | AURKC 0 | BLK 0 | BMX 0 | BRAF 0 | BRAF_V600E 0 | BTK 0 | CAMK2A 0 | CAMK2G 0 | CDK10 = 0 | CDK2 = 0 | CDK3 = 0 | CDK4 = 0 | CDK5 = 0 | CDK6 = 0
